PubChem BioAssay AID686937, Drosophila RNAi Screening Center – 2013
Assay: 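Genes whose loss weakens secretory pathway function in fly cells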 (primary screen). Cell system: Drosophila S2 cells expressing secreted horseradish peroxidase. Reagent: long dsRNA against Drosophila genes. Time to read-out: about 5.5 days (5 days dsRNA, then 12 h reporter induction). Treatment: reporter expression induced after 5 days of dsRNA, read 12 h later; inducer not stated. Measured: 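Chemiluminescent measurement of peroxidase in the medium 12 h after reporter induction, following 5 days of dsRNA, given as a z-score per plate; higher means more secretion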. Reading the numbers: z-score: higher = more reporter secreted into medium.
The deposit covers about 23,000 reagents; this is a random part of those with a known target gene and a result. 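Reduced-secretion tags in replicate 1 do not always agree with the z-scores; no criterion for assigning the tags was given.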 A plus sign joins genes that one reagent is predicted to hit. Reagent sequences are not shown. The record does not give: the amount of reagent.

target gene | amplicon | z-score, replicate 1 | z-score, replicate 2 | z-score, replicate 3 | z-score, replicate 4 | phenotype, replicate 1
Polr1D + DCTN6-p27 | DRSC02094 | -0.06 | -0.47 | – | – | –
CG14965 | DRSC08424 | 0.33 | 0.46 | – | – | –
Fmr1 (Fragile X messenger ribonucleoprotein 1) | DRSC16674 | 0.55 | 0.28 | – | – | –
unc (uncoordinated) | DRSC20511 | 0.55 | 0.31 | – | – | –
CG13775 | DRSC02279 | 0.68 | 0.44 | – | – | –
vnd (ventral nervous system defective) | DRSC17360 | 0.64 | 0.59 | – | – | –
vnd (ventral nervous system defective) | DRSC18849 | -0.11 | 0.3 | 0.25 | 0.47 | –
vnd (ventral nervous system defective) | DRSC22487 | -0.54 | -0.53 | – | – | –
bard | DRSC14796 | 0.38 | 0.43 | – | – | –
CG31266 | DRSC15747 | -0.68 | 0.53 | – | – | –
Ada2a + Polr2D | DRSC16206 | 0.34 | -0.33 | – | – | –
Ada2a + Polr2D | DRSC21598 | -3.07 | -1.07 | – | – | reduced secretion
CG33308 | DRSC01419 | -0.15 | 0.04 | – | – | –
Cpr64Aa (Cuticular protein 64Aa) | DRSC08460 | -1.58 | -1.24 | – | – | reduced secretion
CYLD (Cylindromatosis) | DRSC02870 | 0.25 | 0.02 | – | – | –
CG4452 | DRSC10422 | 0.03 | -0.04 | – | – | –
CG14545 | DRSC14889 | 0.24 | 0.36 | – | – | –
CG2021 | DRSC08546 | -0.25 | -0.1 | – | – | –
CG12983 | DRSC11692 | 0.25 | 0.14 | – | – | –
Acat1 (Acetyl-CoA acetyltransferase 1) | DRSC17766 | 0.27 | 0.45 | – | – | –
Caf1-105 (Chromatin assembly factor 1, p105 subunit) | DRSC06209 | 0.36 | 0.33 | – | – | –
Efr (ER GDP-fucose transporter) | DRSC18322 | 0.43 | 0.33 | – | – | –
pll (pelle) | DRSC17026 | -0.25 | 0.23 | – | – | –
Tgt (tRNA-guanine transglycosylase) | DRSC00672 | 0.41 | 0.27 | – | – | –
alpha-Spec (alpha Spectrin) | DRSC08704 | 0.24 | 0.39 | – | – | –
CG10154 | DRSC09707 | 0.34 | 0.35 | – | – | –
CG31183 | DRSC14403 | 0.08 | 0.06 | – | – | –
CG31183 | DRSC15554 | 0.36 | 0.31 | – | – | –
CG14088 | DRSC10092 | 0.45 | 0.57 | – | – | –
PH4alphaMP (prolyl-4-hydroxylase-alpha MP) | DRSC17031 | 0.24 | 0.15 | – | – | –
Ythdf (YTH N6-methyladenosine RNA binding protein) | DRSC16036 | 0.19 | 0.2 | – | – | –
Ythdf (YTH N6-methyladenosine RNA binding protein) | DRSC16037 | 0.16 | 0.26 | – | – | –
Rbm13 (RNA-binding motif protein 13) | DRSC17749 | -0.48 | -0.93 | – | – | –

Quoted from the entries so far (5 entries):
target gene | amplicon | z-score, replicate 1 | z-score, replicate 2 | z-score, replicate 3 | z-score, replicate 4 | phenotype, replicate 1
Ada2a + Polr2D | DRSC21598 | -3.07 | -1.07 | – | – | reduced secretion
CG33308 | DRSC01419 | -0.15 | 0.04 | – | – | –
Cpr64Aa (Cuticular protein 64Aa) | DRSC08460 | -1.58 | -1.24 | – | – | reduced secretion
CYLD (Cylindromatosis) | DRSC02870 | 0.25 | 0.02 | – | – | –
CG4452 | DRSC10422 | 0.03 | -0.04 | – | – | –
